From patent US12070471B2, “Remote loading of sparingly water-soluble drugs into lipid vesicles” (CELATOR PHARMACEUTICALS, INC., priority 2014, dated 2024)
For at least one compound, name, drawing or mass did not settle the structure.

Experiment: Remote loading of deferasirox precipitate into liposomes using an acetate gradient
Type: physicochemical

## O=C(O)c1ccc(-n2nc(-c3ccccc3O)nc2-c2ccccc2O)cc1 [DFX, deferasirox]
Example 16
  loading into acetate gradient liposomes relative to control liposomes: 28 fold
Target 200 g DFX/mol phospholipid
  efficiency of 250 or 500 mM calcium acetate liposomes relative to 120 mM: at least two-fold greater
